This series has as its system T1, Ah-BarR WT (Acidianus hospitalis).
T1 sequence (looked up, limits assumed): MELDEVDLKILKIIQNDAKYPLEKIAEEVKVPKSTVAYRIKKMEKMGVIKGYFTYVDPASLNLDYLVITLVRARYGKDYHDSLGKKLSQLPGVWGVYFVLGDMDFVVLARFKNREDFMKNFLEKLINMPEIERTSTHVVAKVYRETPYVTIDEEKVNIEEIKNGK
The series is described as follows: EMSA. The following applies: 20 mM Tris-HCl pH 8.0, 50 mM NaCl, 0.4 mM EDTA, 0.1 mM DTT, 1 mM MgCl2, 12.5% glycerol, 25 ug/mL salmon sperm DNA, 25 min at 37 C (EMSA), recombinant protein, protein details: C-terminal His, label: 32P 5' end (bottom strand in footprinting), probe letters rebuilt from the primers and the genome.

For at least one entry, the source does not settle the construct or the ends of the probe. At least one verdict rests on a figure or table, not on a statement of the authors. Where a protein sequence is shown, tags need not be part of it.

For “CCTTATACATTTTATCGACGAATAAGTTGAATATACAACTAAATAAAAAGGGATTATCTTGGAAATTATACAGAGACATTCCAAAGCAAGATTTAAACTATTGTACTTTTTACAATAGCTGTCCTAAAATACTTAAATTCCGTCTAAACTACTAGTATCGCATGGATG (double strand) [WT promoter short 168 bp]”, the binding result is on record as “binds” (5 mM beta-alanine, complexes unstable during electrophoresis) and “binds” (no beta-alanine).

For the origin of these results see publication PMC10201364 (MicrobiologyOpen, 2023).
